Data as given in PubChem BioAssay AID652259 (Drosophila RNAi Screening Center, 2013)
The deposit covers about 22,000 reagents; this is a random part of those with a known target gene and a result. In the full data, 233 (1.1%) are marked active. 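Light values are raw, unnormalised plate reads; the ratio scores behind the reporter calls were not deposited.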 A number with no mark means an inactive call. Reagents against one gene are numbered here. Names joined by + are all predicted targets of the reagent. Reagent sequences are not shown. Not given: the amount of reagent, the time to read-out, the dose of the treatment.

Purpose: 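Genome-wide hunt for genes that control Wingless pathway activity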 (primary screen)
Cell system: Drosophila clone 8 imaginal disc epithelial cells
Reagent: long dsRNA against Drosophila genes
Challenge: pathway stimulated by co-transfected Wingless expression plasmid
Read-out: 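Firefly luciferase from a tcf-site Wingless reporter, measured alongside co-transfected Renilla luciferase that tracks transfection; pathway stimulated by a Wingless plasmid; the firefly-to-Renilla ratio is not deposited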
Direction: firefly reporter light: higher = more Wg reporter light, before normalisation; Renilla control light: higher = more transfected or surviving cells
Active means: 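a knock-down is a candidate when at least two out of four statistical tests show it departing from its plate mean; one test alone signals a weak candidate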
Meaning of the calls: active = candidate regulator (raises or lowers reporter); inactive = not a candidate

For zip #1, the entry reads firefly reporter light, replicate 1 = 4501; firefly reporter light, replicate 2 = 7001; Renilla control light, replicate 1 = 1128; Renilla control light, replicate 2 = 3691.
For zip #2 the deposit lists firefly reporter light, replicate 1 = 5.42e5; firefly reporter light, replicate 2 = 4.41e5; Renilla control light, replicate 1 = 1.47e5; Renilla control light, replicate 2 = 1.04e5.
CG13615 gave firefly reporter light, replicate 1 = 24048; Renilla control light, replicate 1 = 15692.
Knock-down of CG31418 came out at: firefly reporter light, replicate 1 = 3.73e5; firefly reporter light, replicate 2 = 4.17e5; Renilla control light, replicate 1 = 1.69e5; Renilla control light, replicate 2 = 1.52e5.
After knock-down of ave, the screen gave firefly reporter light, replicate 1 = 16954; Renilla control light, replicate 1 = 13794.
With knock-down of MFS9, the screen gave firefly reporter light, replicate 1 = 2752; firefly reporter light, replicate 2 = 8854; Renilla control light, replicate 1 = 1104; Renilla control light, replicate 2 = 2427.
Against CG11892 the deposit lists firefly reporter light, replicate 1 = 1452; firefly reporter light, replicate 2 = 4794; Renilla control light, replicate 1 = 1076; Renilla control light, replicate 2 = 647.
For Cpr66D #1, the values are firefly reporter light, replicate 1 = 1939; firefly reporter light, replicate 2 = 6296; Renilla control light, replicate 1 = 470; Renilla control light, replicate 2 = 1192.
Cpr66D #2 scored reporter change call, replicate 1 = Wg reporter activity raised; firefly reporter light, replicate 1 = 11312; firefly reporter light, replicate 2 = 1834; Renilla control light, replicate 1 = 1622; Renilla control light, replicate 2 = 793.
After knock-down of Sdc, the screen gave firefly reporter light, replicate 1 = 3146; firefly reporter light, replicate 2 = 4490; Renilla control light, replicate 1 = 1019; Renilla control light, replicate 2 = 2037.
Knock-down of CG15861 gave: firefly reporter light, replicate 1 = 1872; firefly reporter light, replicate 2 = 5483; Renilla control light, replicate 1 = 427; Renilla control light, replicate 2 = 2176.
With knock-down of CG2694 the results were firefly reporter light, replicate 1 = 3805; firefly reporter light, replicate 2 = 8365; Renilla control light, replicate 1 = 1448; Renilla control light, replicate 2 = 2658.
sle + CG12592 scored firefly reporter light, replicate 1 = 3.02e5; firefly reporter light, replicate 2 = 3.24e5; Renilla control light, replicate 1 = 1.36e5; Renilla control light, replicate 2 = 1.21e5.
Knock-down of ND-51 came out at: firefly reporter light, replicate 1 = 7232; Renilla control light, replicate 1 = 3016.
asRNA:CR43433 + Rbp6 showed firefly reporter light, replicate 1 = 5768; Renilla control light, replicate 1 = 2154.
For escl the deposit lists firefly reporter light, replicate 1 = 14060; Renilla control light, replicate 1 = 5226.
After knock-down of ash2, the record shows firefly reporter light, replicate 1 = 2169; firefly reporter light, replicate 2 = 6611; Renilla control light, replicate 1 = 983; Renilla control light, replicate 2 = 1700.
For CG3817, the values are firefly reporter light, replicate 1 = 6640; Renilla control light, replicate 1 = 2087.
For CG13675 #1 the deposit lists firefly reporter light, replicate 1 = 6069; Renilla control light, replicate 1 = 290.
CG13675 #2 showed firefly reporter light, replicate 1 = 1736; firefly reporter light, replicate 2 = 5113; Renilla control light, replicate 1 = 930; Renilla control light, replicate 2 = 1051.
With knock-down of Ir75c, the record shows firefly reporter light, replicate 1 = 7755; Renilla control light, replicate 1 = 3659.
Against Trs33, the values are firefly reporter light, replicate 1 = 17882; Renilla control light, replicate 1 = 3544.
Against CG34181, the entry reads firefly reporter light, replicate 1 = 16141; Renilla control light, replicate 1 = 10693.
CG1307 scored firefly reporter light, replicate 1 = 6729; Renilla control light, replicate 1 = 1961.
Against CG1074 the deposit lists firefly reporter light, replicate 1 = 10956; firefly reporter light, replicate 2 = 6.87e5; Renilla control light, replicate 1 = 4544; Renilla control light, replicate 2 = 3.25e5.
CG6834 showed reporter change call, replicate 1 = Wg reporter activity lowered (active); firefly reporter light, replicate 1 = 4539; Renilla control light, replicate 1 = 3465.
For tud, the values are firefly reporter light, replicate 1 = 1735; firefly reporter light, replicate 2 = 7266; Renilla control light, replicate 1 = 541; Renilla control light, replicate 2 = 2779.
CG15260 gave firefly reporter light, replicate 1 = 3260; firefly reporter light, replicate 2 = 5293; Renilla control light, replicate 1 = 1217; Renilla control light, replicate 2 = 2743.
For CG15529 the deposit lists firefly reporter light, replicate 1 = 7559; Renilla control light, replicate 1 = 2977.
CG42336 #1 scored firefly reporter light, replicate 1 = 15124; Renilla control light, replicate 1 = 12572.
Against CG42336 #2, the entry reads firefly reporter light, replicate 1 = 4138; Renilla control light, replicate 1 = 2067.
CG42336 #3 gave firefly reporter light, replicate 1 = 8386; Renilla control light, replicate 1 = 3952.
